PubChem BioAssay AID652243 – Drosophila RNAi Screening Center – 2013
Aim: 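Fly genes required for human androgen receptor driven transcription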 (primary screen). Cell system: Drosophila S2R+ cells. Knock-down reagent: long dsRNA against Drosophila genes. Duration: 72 h (48 h, then 24 h hormone). Challenge: synthetic androgen R1881 at 10 nM for 24 h. Detection: 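Firefly light from an androgen-responsive reporter and Renilla control light per well, raw and unnormalised, for each of two replicates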. Reading the numbers: firefly reporter light: higher = more light from androgen-responsive reporter; Renilla control light: higher = more constitutive control signal (cell number, transfection). Call rule: 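Across duplicate plates, a knock-down whose log firefly/Renilla ratio shifted a set fold down or up from the GFP/LacZ control mean was a hit; the downward cut appears as both 1.5 and 3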. Calls: active = hit: reporter lowered or raised; inactive = no hit.
The deposit covers about 24,000 reagents; shown is a random part of those with a known target gene and a result. In the full data, 246 (1%) are marked active. 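Plates not normalised; calls are printed but the firefly/Renilla ratio behind them is not deposited; fold cut for lowering reported inconsistently.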 Raw values vary from plate to plate and are shown uncorrected. A plus sign joins genes that one reagent is predicted to hit. The record does not give: the amount of reagent.

Target gene | dsRNA | firefly reporter light, replicate 1 | firefly reporter light, replicate 2 | Renilla control light, replicate 1 | Renilla control light, replicate 2 | Call
Polr2H (GeneID 40415) | DRSC11642 | 45850 | 1.11e5 | 4.36e5 | 4.69e5 | inactive
CG18586 (GeneID 38659) | DRSC10325 | 1.29e5 | 75292 | 1.10e6 | 1.19e6 | inactive
futsch (GeneID 5740544) | DRSC17688 | 7.68e5 | 1.13e6 | 7.53e5 | 7.67e5 | inactive
futsch (GeneID 5740544) | DRSC17949 | 3.60e5 | 3.13e5 | 2.77e6 | 3.00e6 | inactive
futsch (GeneID 5740544) | DRSC17952 | 75447 | 58767 | 1.13e6 | 9.01e5 | active
futsch (GeneID 5740544) | DRSC18543 | 2.82e5 | 2.30e5 | 2.89e6 | 2.25e6 | inactive
futsch (GeneID 5740544) | DRSC26427 | 2.36e5 | 1.54e5 | 6.86e5 | 3.88e5 | inactive
Cdk1 (GeneID 34411) | DRSC03504 | 1.44e5 | 1.60e5 | 7.58e5 | 1.02e6 | active
Rcd6 (GeneID 37332) | DRSC06054 | 7.17e5 | 3.42e5 | 1.54e6 | 8.58e5 | inactive
Rcd6 (GeneID 37332) | DRSC27115 | 3.99e5 | 3.07e5 | 4.85e5 | 3.82e5 | inactive
jumu (GeneID 41265) | DRSC16651 | 1.31e5 | 1.27e5 | 2.60e6 | 2.33e6 | inactive
Hr38 (GeneID 35332) | DRSC23230 | 7.52e5 | 7.64e5 | 8.30e5 | 1.01e6 | inactive
Hr38 (GeneID 35332) | DRSC28077 | 5.18e5 | 5.59e5 | 1.22e6 | 8.94e5 | inactive
CG33269 (GeneID 2768983) | DRSC10585 | 6.94e5 | 6.33e5 | 2.51e6 | 1.42e6 | inactive
Dus1 (GeneID 33190) | DRSC00623 | 1.20e5 | 1.14e5 | 6.97e5 | 6.71e5 | inactive
CG16965 (GeneID 34607) | DRSC02547 | 1.28e5 | 2.22e5 | 9.98e5 | 9.00e5 | inactive
RpL40 (GeneID 33629) | DRSC00782 | 90504 | 96362 | 5.83e5 | 5.77e5 | inactive
CG31683 + CG18858 | DRSC02703 | 1.67e5 | 2.13e5 | 2.26e6 | 2.38e6 | inactive
CG5498 (GeneID 40250) | DRSC11608 | 31643 | 41972 | 3.09e5 | 3.61e5 | inactive
TyrRS-m (GeneID 37965) | DRSC04286 | 6.80e5 | 5.64e5 | 1.24e6 | 1.27e6 | inactive
CG1578 (GeneID 32135) | DRSC19729 | 1.31e5 | 1.04e5 | 8.73e5 | 8.25e5 | inactive
CG1578 (GeneID 32135) | DRSC26369 | 3.61e5 | 3.33e5 | 5.63e5 | 5.99e5 | inactive
CtsL1 (GeneID 36546) | DRSC05462 | 1.63e5 | 1.51e5 | 2.37e5 | 3.19e5 | inactive
CtsL1 (GeneID 36546) | DRSC07363 | 1.32e6 | 1.38e6 | 2.50e6 | 2.33e6 | inactive
CtsL1 (GeneID 36546) | DRSC29071 | 9.06e5 | 7.34e5 | 1.68e6 | 1.38e6 | inactive
CG18178 (GeneID 39138) | DRSC10302 | 4.47e5 | 4.31e5 | 5.45e5 | 6.49e5 | inactive
CG13373 (GeneID 30988) | DRSC27059 | 3.48e5 | 2.64e5 | 6.55e5 | 4.75e5 | inactive
Abca3 (GeneID 33103) | DRSC20546 | 2.42e5 | 1.91e5 | 6.83e5 | 5.64e5 | inactive
SmydA-8 (GeneID 31200) | DRSC22064 | 1.01e6 | 8.20e5 | 1.73e6 | 1.64e6 | inactive
SmydA-8 (GeneID 31200) | DRSC22263 | 4.71e5 | 4.41e5 | 1.72e6 | 1.59e6 | inactive
rst (GeneID 31290) | DRSC17243 | 3.78e5 | 3.88e5 | 3.87e5 | 3.47e5 | inactive
rst (GeneID 31290) | DRSC18828 | 2.45e5 | 2.35e5 | 3.18e6 | 3.05e6 | inactive
rst (GeneID 31290) | DRSC25716 | 3.52e5 | 2.02e5 | 1.20e6 | 5.14e5 | inactive
CG16926 (GeneID 50205) | DRSC06637 | 1.21e6 | 1.10e6 | 9.91e5 | 8.71e5 | inactive
CG7017 (GeneID 40213) | DRSC10762 | 1.79e5 | 2.90e5 | 1.36e6 | 2.92e6 | inactive
CG13474 (GeneID 39600) | DRSC10018 | 3.12e5 | 1.75e5 | 2.44e6 | 1.33e6 | inactive
CG13117 (GeneID 34289) | DRSC02215 | 2.47e5 | 2.51e5 | 1.50e6 | 1.33e6 | inactive
CG13117 (GeneID 34289) | DRSC26983 | 5.32e5 | 5.83e5 | 7.21e5 | 6.04e5 | inactive
RpL10Ab (GeneID 39338) | DRSC10798 | 2.13e5 | 1.97e5 | 1.98e6 | 1.54e6 | inactive
RpL10Ab (GeneID 39338) | DRSC26988 | 2.51e5 | 2.28e5 | 5.19e5 | 4.69e5 | inactive
l(1)10Bb (GeneID 32069) | DRSC20346 | 4.29e5 | 5.84e5 | 4.08e6 | 3.93e6 | inactive
Cyt-c1L (GeneID 43457) | DRSC14860 | 2.78e5 | 2.80e5 | 2.16e6 | 2.11e6 | inactive
Cyt-c1L (GeneID 43457) | DRSC22096 | 1.37e6 | 1.31e6 | 1.62e6 | 1.59e6 | inactive
Cyt-c1L (GeneID 43457) | DRSC28229 | 4.27e5 | 7.06e5 | 1.07e6 | 1.31e6 | inactive
CG42583 (GeneID 8674103) | DRSC22937 | 4.92e5 | 6.69e5 | 1.19e6 | 1.73e6 | inactive
CG42583 (GeneID 8674103) | DRSC26327 | 4.78e5 | 4.72e5 | 8.02e5 | 8.61e5 | inactive
Zdhhc8 (GeneID 31887) | DRSC18044 | 38238 | 33821 | 4.47e5 | 5.25e5 | inactive
Zdhhc8 (GeneID 31887) | DRSC18122 | 1.96e5 | 3.40e5 | 2.98e6 | 3.02e6 | inactive
CG16723 (GeneID 42781) | DRSC15138 | 1.74e5 | 2.18e5 | 1.72e6 | 2.05e6 | inactive
CG16723 (GeneID 42781) | DRSC28144 | 4.84e5 | 3.49e5 | 1.77e6 | 1.40e6 | inactive
Sfxn2 (GeneID 40080) | DRSC10718 | 2.58e5 | 1.99e5 | 1.81e6 | 1.96e6 | inactive
CG33258 (GeneID 3885664) | DRSC09415 | 2.48e5 | 2.21e5 | 4.95e5 | 3.62e5 | inactive
CG33258 (GeneID 3885664) | DRSC23590 | 6.15e5 | 5.26e5 | 3.76e5 | 4.93e5 | inactive
alpha-Catr (GeneID 49713) | DRSC04669 | 1.47e5 | 1.65e5 | 9.72e5 | 1.05e6 | inactive
alpha-Catr (GeneID 49713) | DRSC28046 | 2.59e5 | 3.82e5 | 1.04e6 | 9.61e5 | inactive
Osi5 (GeneID 40759) | DRSC12276 | 94009 | 1.18e5 | 2.19e6 | 2.62e6 | inactive
Oamb (GeneID 43982) | DRSC13433 | 1.65e5 | 1.48e5 | 1.26e5 | 1.68e5 | inactive
Oamb (GeneID 43982) | DRSC15120 | 1.76e5 | 2.30e5 | 1.93e6 | 2.04e6 | inactive
Oamb (GeneID 43982) | DRSC16763 | 2.35e5 | 3.22e5 | 3.40e6 | 3.38e6 | inactive
